Reference: article PMC7188863
Results are given in words; binding and its absence hold for the method and conditions named. Binding seen in cells or lysates may run through a third protein. Some entries that bind do so weakly or less than the wild type. For part of these data: Tags and fused reporters may be left off the sequences shown. One block for each molecule: values may come before it.

Chains of the proteins cited; added tags and fusions are not shown. Residues count along the entry.
UniProt O75197, residues 32-1615: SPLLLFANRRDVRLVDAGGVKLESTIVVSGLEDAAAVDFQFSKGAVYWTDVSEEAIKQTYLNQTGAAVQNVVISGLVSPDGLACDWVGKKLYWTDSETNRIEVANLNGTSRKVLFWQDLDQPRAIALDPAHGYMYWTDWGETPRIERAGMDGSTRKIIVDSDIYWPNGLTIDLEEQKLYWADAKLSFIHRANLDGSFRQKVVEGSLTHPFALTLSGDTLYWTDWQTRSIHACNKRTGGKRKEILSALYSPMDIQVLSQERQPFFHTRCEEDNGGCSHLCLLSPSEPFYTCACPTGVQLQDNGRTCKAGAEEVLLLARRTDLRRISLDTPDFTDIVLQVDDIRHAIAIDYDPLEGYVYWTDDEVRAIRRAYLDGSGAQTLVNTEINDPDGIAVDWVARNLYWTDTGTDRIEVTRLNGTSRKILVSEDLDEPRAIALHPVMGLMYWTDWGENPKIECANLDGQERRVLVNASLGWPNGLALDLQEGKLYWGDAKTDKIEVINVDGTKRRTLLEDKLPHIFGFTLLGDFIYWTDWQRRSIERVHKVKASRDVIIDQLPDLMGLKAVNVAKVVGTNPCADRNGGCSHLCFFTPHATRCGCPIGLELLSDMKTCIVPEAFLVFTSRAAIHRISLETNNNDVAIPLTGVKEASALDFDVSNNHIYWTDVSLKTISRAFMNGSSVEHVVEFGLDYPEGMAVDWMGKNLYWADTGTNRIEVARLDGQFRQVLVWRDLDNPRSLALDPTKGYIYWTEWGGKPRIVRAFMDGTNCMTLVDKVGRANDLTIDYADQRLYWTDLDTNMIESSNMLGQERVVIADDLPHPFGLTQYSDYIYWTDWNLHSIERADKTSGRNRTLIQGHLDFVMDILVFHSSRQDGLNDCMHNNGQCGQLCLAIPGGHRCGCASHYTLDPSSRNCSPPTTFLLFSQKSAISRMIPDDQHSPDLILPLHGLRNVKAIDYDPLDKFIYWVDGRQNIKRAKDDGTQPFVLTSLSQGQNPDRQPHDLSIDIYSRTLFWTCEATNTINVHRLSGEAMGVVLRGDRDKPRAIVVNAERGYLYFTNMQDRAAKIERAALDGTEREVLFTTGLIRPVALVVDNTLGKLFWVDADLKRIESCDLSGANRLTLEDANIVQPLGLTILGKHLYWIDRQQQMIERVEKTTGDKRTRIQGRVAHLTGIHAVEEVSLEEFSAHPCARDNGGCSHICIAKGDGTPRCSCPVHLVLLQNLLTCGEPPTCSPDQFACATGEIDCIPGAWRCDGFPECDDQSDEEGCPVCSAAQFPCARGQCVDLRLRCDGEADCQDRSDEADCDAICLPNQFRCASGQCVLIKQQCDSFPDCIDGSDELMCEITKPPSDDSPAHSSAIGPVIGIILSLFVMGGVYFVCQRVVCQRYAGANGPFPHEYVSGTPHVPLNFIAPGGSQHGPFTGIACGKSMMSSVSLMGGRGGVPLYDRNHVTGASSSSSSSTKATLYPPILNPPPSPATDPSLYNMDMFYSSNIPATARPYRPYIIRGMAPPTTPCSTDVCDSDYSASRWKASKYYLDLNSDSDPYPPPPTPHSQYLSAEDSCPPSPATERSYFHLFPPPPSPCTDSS
UniProt P37173, residues 23-567: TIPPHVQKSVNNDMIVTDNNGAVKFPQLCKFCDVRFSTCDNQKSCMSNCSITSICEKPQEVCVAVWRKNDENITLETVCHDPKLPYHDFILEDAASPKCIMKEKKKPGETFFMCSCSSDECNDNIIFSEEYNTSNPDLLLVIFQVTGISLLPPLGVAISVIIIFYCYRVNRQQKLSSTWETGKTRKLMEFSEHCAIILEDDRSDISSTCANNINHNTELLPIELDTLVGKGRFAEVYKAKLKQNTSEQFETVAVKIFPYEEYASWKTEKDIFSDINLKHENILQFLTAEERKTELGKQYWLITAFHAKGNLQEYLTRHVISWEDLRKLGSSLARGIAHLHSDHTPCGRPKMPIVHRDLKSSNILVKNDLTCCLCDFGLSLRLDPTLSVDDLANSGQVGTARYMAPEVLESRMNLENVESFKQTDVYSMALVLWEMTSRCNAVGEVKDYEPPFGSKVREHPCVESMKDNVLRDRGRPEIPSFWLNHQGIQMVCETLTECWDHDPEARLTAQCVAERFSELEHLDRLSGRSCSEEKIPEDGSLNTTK

Tests used:
[1] = molecular target: T1, TβRI with His tag, expressed in HKC-8 cells (UniProt P36897); experiment: co-IP; HKC-8 cells co-transfected with TβRI-His and LRP5-Flag or LDLR-Flag for 48 h, with or without 2 ng/ml TGF-β for 15 min; TβRI-His precipitated by Ni-NTA resin; blotted for His, Flag and TβRII
T1 sequence: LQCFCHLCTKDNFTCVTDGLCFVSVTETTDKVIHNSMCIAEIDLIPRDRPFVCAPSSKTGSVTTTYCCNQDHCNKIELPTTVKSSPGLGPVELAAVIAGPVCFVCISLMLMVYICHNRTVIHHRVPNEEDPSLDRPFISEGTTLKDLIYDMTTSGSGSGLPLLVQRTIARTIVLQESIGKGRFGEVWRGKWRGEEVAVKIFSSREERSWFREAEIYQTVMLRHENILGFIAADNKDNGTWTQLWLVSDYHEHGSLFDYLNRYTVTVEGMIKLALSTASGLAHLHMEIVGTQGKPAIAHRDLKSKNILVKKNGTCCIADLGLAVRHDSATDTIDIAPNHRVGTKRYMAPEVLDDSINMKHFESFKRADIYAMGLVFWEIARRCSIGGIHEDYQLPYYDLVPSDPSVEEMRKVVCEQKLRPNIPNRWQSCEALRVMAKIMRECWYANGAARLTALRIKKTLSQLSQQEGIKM

[2] = molecular target: low-density lipoprotein receptor-related protein 5 (LRP5), endogenous in HKC-8 cells (human (endogenous in HKC-8)) (UniProt O75197); experiment: co-IP; endogenous LRP5 precipitated with its specific antibody from HKC-8 cells in normal condition; blotted for TβRI, TβRII and LRP5
[3] = molecular target: LRP5 overexpressed in HKC-8 cells (no tag named) (UniProt O75197); experiment: co-IP; HKC-8 cells co-transfected with TβRII and LRP5 for 48 h, with or without 2 ng/ml TGF-β for 15 min; TβRII and LRP5 each precipitated with their specific antibodies; blotted for TβRII and LRP5
[4] = molecular target: T2, TβRI with His tag, expressed in HEK293A cells (UniProt P36897); experiment: co-IP; HEK293A cells co-transfected with TβRI-His and LRP5FL-Flag, LRP5∆N-Flag or LRP5∆C-Flag for 48 h; TβRI-His precipitated by Ni-NTA resin; blotted for His and Flag
T2 sequence: T1 sequence

[5] = molecular target: T2, TβRI with His tag, expressed in HEK293A cells; experiment: co-IP; HEK293A cells co-transfected with TβRI-His and LRP5-Flag for 48 h, with or without 2 ng/ml TGF-β1 for 15 min; TβRI-His precipitated by Ni-NTA resin and LRP5-Flag by anti-Flag resin; blotted for His and Flag

binding [1]: binds
Molecule: LRP5 with Flag tag, expressed in HKC-8 cells (from UniProt O75197 32-1615) (receptor)

binding [2]: binds
Molecule: TGF-β receptor II (TβRII), endogenous in HKC-8 cells (from UniProt P37173 23-567)

The remaining lines, values behind:

Molecule: TβRII overexpressed in HKC-8 cells (from UniProt P37173 23-567) (receptor)
binding [3]: binds

Molecule: full-length LRP5 with Flag tag, expressed in HEK293A cells (from UniProt O75197 32-1615) (receptor)
binding [4]: binds
binding [5]: binds

B1: TGF-β receptor I (TβRI), endogenous in HKC-8 cells (receptor, UniProt P36897 34-503)
chain: T1 sequence
binding [2]: binds
